Assay [1] has as its target T1, GDE2–GFP (human GDE2 tagged with GFP) (human) (UniProt Q8WTR4).
T1 sequence: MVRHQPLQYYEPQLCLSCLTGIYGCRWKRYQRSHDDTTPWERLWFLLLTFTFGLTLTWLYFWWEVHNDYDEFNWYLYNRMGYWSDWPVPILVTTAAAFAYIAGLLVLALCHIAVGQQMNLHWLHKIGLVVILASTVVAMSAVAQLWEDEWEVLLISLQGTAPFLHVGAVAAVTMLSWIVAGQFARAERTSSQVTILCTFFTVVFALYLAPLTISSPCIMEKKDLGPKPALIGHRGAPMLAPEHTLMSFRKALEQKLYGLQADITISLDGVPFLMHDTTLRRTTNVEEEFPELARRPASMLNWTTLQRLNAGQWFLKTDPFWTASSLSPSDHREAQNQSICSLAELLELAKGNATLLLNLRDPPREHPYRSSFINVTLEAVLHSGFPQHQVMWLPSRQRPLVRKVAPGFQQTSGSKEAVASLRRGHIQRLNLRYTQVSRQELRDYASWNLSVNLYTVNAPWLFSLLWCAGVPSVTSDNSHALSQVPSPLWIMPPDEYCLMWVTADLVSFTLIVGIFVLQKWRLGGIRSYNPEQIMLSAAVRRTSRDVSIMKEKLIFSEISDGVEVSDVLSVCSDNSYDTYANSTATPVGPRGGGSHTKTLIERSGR
Put plainly: co-IP; HEK293T cells transiently co-transfected with GDE2–mCh or GDE2–GFP and a tagged Rab; lysed after 24 h in RIPA buffer; 500 μg–1 mg extract incubated with GFP or mCherry Trap beads at 4°C for 1 h; immunoblot. (In general: A western blot detects proteins with antibodies after separation by electrophoresis.)

Protein sequences, listed by entry. Tags and fused reporters are not part of them.
UniProt P20339: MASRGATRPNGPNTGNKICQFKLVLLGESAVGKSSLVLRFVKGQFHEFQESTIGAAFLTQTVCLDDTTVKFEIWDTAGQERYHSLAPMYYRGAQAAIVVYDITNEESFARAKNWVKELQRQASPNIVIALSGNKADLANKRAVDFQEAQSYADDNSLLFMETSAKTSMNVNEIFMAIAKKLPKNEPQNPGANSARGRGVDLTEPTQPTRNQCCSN
UniProt P51149: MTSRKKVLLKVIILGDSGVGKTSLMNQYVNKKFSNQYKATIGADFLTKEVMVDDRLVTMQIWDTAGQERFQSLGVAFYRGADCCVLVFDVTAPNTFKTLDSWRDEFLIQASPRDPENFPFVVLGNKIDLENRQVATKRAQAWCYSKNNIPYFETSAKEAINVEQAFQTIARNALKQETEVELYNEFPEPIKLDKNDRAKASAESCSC
UniProt P62491: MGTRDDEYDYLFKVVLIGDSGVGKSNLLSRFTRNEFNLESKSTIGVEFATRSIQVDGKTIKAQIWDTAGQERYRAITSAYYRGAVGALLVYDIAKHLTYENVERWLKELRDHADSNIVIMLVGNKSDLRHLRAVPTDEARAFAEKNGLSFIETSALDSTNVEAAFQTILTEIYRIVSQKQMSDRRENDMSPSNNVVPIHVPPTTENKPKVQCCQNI

In assay [2] the target is T2, GDE2–mCh (human GDE2 tagged with mCherry) (human) (UniProt Q8WTR4).
T2 sequence: T1 sequence
Described as above.

These are yes or no findings as the source states them, for the method shown. In cells and extracts the contact can be indirect. Some binding calls cover weakened binding; strength is not graded here. Tags and fused reporters may be left off the sequences shown.

Regarding Rab5a–mCh (from UniProt P20339 1-215), the binding entry in assay [1] was “binds”.

For the substance Rab7a–GFP (from UniProt P51149 1-207), the binding result in assay [2] was “binds”.

Take Rab11a–mCh (from UniProt P62491 1-216): the binding entry in assay [1] was “binds”.
